# Results as given in PubChem BioAssay AID1347076 (National Center for Advancing Translational Sciences (NCATS), 2019).
# In all, about 400,000 compounds went through this assay and about 13,000 (3.2%) were called active. Inconclusive means that the source gave no clear call. Such entries were picked first, then a sample of the others. Calls follow the shape of the dose curve; as a rule, active = well fitted cell-killing curve with a large enough effect; inconclusive = small, poorly fitted or top-dose-only effect, or effect the other way; inactive = flat fitted curve, though single readings scatter. Potencies of inconclusive entries are doubtful fits and often do not repeat.
# Assay: qHTS assay for MDR1-selective chemotherapeutics: Primary screen using the drug-selected MDR subline cells KB-V1; also: nearly all actives have a fitted effect of over 60% in size
# Conditions: KB-V1 MDR cells viability, CellTiter-Glo, 72 h; activity change, negative = cytotoxicity: at 46.1 µM (top of the series)
# In short: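 In this primary screen, KB-V1 cells overexpressing P-gp are incubated with library compounds (lowest to highest concentration) for 72 h at 37 degrees C before a luminescent ATP viability read.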
# % is scaled to controls: 0 for no effect and ±100 for the full control effect; potency is read from the fitted curve at half-maximal effect.
SMILES,Potency,"activity change, negative = cytotoxicity"
O=C(COc1cc2oc(=O)c3c(c2cc1Cl)CCC3)NCC1CCC(C(=O)O)CC1 (stereo unspecified),"inconclusive: 32.6 µM [rising, single point]",
O=C(N/N=C/C1CC2CCC1C2)c1ccc2c(c1)OCO2 (stereo unspecified),"inconclusive: 18.4 µM [rising, partial curve, poor fit]",
Cc1[nH]nc(N=CC2=C(O)CC(c3ccco3)CC2=O)c1-c1ccc(Cl)cc1 (stereo unspecified),active: 16.4 µM,
O=C(O)CN1C(=O)C2C3C=CC(C3)C2C1=O (stereo unspecified),"inconclusive: 16.4 µM [rising, partial curve, poor fit]",
c1ccc(-c2noc(-c3ccno3)n2)nc1,inactive,
COc1cccc2c1oc1c(SCc3nc4ccccc4[nH]3)nc(C)nc12,"inconclusive: 16.4 µM [cytotoxic, single point]",
Cc1ccccc1N=Cc1cccc(O)c1O,,inconclusive: -47%
CC(=O)Nc1ccc(C(=O)NNC(=O)c2ccc(Cl)cc2)cc1,"inconclusive: 29.1 µM [rising, single point]",
Cc1nn(CC(=O)NCCCN2CCCC2=O)c(C)c1[N+](=O)[O-],inactive,
COc1cc(-c2noc(C)c2/C=C/c2ccc(N)cc2)cc(OC)c1OC,active: 0.58 µM,inconclusive: -30.1%
CC1(C)Cc2ccccc2-c2nnc(SCC(=O)Nc3nc4ccccc4s3)n21,active: 3.26 µM,
CCCCc1nc(NCCN)c(C#N)c2c1CSC(C)(C)C2,"inconclusive: 16.4 µM [cytotoxic, single point]",
O=C(Cn1cc(C(=O)c2ccco2)c2ccccc21)NC1CC1,"inconclusive: 29.1 µM [cytotoxic, single point]",
Cc1ccc(Cl)cc1NC(=O)CCn1cccc1,inactive,
COCCNC(=S)N(C)[C@H]1C[C@H]2c3cc(-c4ccccc4)ccc3CCN2C(=O)[C@H]1[C@H](C)O,inactive,
COc1cccc(NC(=O)CSc2nc3ccccc3c(=O)n2C)c1,"inconclusive: 6.51 µM [cytotoxic, partial curve]",
CSc1ccc(C(O)c2ncc(-c3ccccc3F)[nH]2)cc1 (stereo unspecified),inactive,
COc1ccc(-c2nc3ccccc3o2)cc1NC(=O)c1cccnc1,"inconclusive: 7.31 µM [cytotoxic, partial curve, poor fit]",
N#Cc1ccccc1S(=O)(=O)N1CCN(C(=O)CN2C(=O)NC3(CCCC3)C2=O)CC1,"inconclusive: 32.6 µM [rising, partial curve, poor fit]",
COc1ccc(C2(CNC(=O)Cc3ccc(OC)c(OC)c3)CCCC2)cc1,"inconclusive: 10.3 µM [cytotoxic, partial curve]",
CC(=O)NC(Cc1cc(C)ccc1C)C(=O)N1CCN(C(=O)c2ccc([N+](=O)[O-])cc2)CC1 (stereo unspecified),"inconclusive: 29.1 µM [rising, single point]",
COc1ccc(CNC(=S)Nc2cc(OC)ccc2OC)cc1,inactive,
CCOC(=O)c1sc2nc(C)nc(NCc3cccnc3)c2c1C,"inconclusive: 7.31 µM [cytotoxic, partial curve]",

# Fetched by compound from the list above, two records:
SMILES,Potency,"activity change, negative = cytotoxicity"
O=C(O)CN1C(=O)C2C3C=CC(C3)C2C1=O (stereo unspecified),"inconclusive: 16.4 µM [rising, partial curve, poor fit]",
O=C(N/N=C/C1CC2CCC1C2)c1ccc2c(c1)OCO2 (stereo unspecified),"inconclusive: 18.4 µM [rising, partial curve, poor fit]",

# Continued.

SMILES,Potency,"activity change, negative = cytotoxicity"
COCCn1c(-c2ccc(Br)cc2)csc1=Nc1cccnc1,"inconclusive: 9.2 µM [cytotoxic, partial curve]",
CCN(CC)CCCNC(=O)c1ccc2c(c1)sc1nc(-c3ccc(C)cc3)cn12,"inconclusive: 29.1 µM [cytotoxic, single point]",
O=C(CC1C(=O)NCCN1Cc1c(F)cccc1Cl)NCCCn1cccn1 (stereo unspecified),"inconclusive: 29.1 µM [rising, single point]",
CNS(=O)(=O)c1cccc(C(=O)OCC(=O)c2cc(C)n(-c3ccc4c(c3)OCO4)c2C)c1,"inconclusive: 29.1 µM [cytotoxic, single point]",
CCOc1ccc(C(=O)Nc2ccc(C(=O)N3CCOCC3)cc2)c(OCC)c1,"inconclusive: 10.3 µM [cytotoxic, partial curve]",
COc1ccccc1N1CCN(C(=O)CSc2nnc(NC(=O)c3ccco3)s2)CC1,"inconclusive: 20.6 µM [cytotoxic, partial curve, poor fit]",
Cc1ccc(NC(=O)Cc2cc(C(=O)O)c3ccccc3n2)c(C)c1,"inconclusive: 29.1 µM [cytotoxic, single point]",
CCN(C)c1ccc(/C=N\n2nnnc2N)cc1,active: 2.59 µM,
C=C1CN(CC(=O)OC)S(=O)(=O)c2ccccc21,"inconclusive: 0.461 µM [rising, full curve, poor fit]",
Cc1ccoc1C(=O)N1CCCC(CCC(=O)N2CCN(c3ccccn3)CC2)C1 (stereo unspecified),"inconclusive: 8.2 µM [cytotoxic, partial curve, poor fit]",
c1cc(CSc2nnc(-c3ccc4c(c3)OCO4)o2)ccn1,active: 23.1 µM,
CCOC(=O)C=C(OC(=O)c1ccc(OC)cc1)c1ccccc1,"inconclusive: 29.1 µM [cytotoxic, single point]",
COc1ccc(OC)c(CN2CCN(CCc3ccccc3)C(CCO)C2)c1 (stereo unspecified),inactive,
O=C(Nc1c(-c2ccccc2)[nH][nH]c1=O)c1ccco1,inactive,
O=C(COc1ccc(S(=O)(=O)NC2CCCCC2)cc1)NCC1CCCO1 (stereo unspecified),"inconclusive: 18.4 µM [cytotoxic, single point]",
O=C(NCCN1CCOCC1)c1cnn2c(-c3ccccc3)cc(-c3ccccc3)nc12,"inconclusive: 23.1 µM [cytotoxic, single point]",
COc1ccc(S(=O)(=O)/N=C2\C=C(NS(=O)(=O)c3ccccc3)C(=O)c3ccccc32)cc1,"inconclusive: 29.1 µM [cytotoxic, single point]",
CCN(c1cccc(C)c1)S(=O)(=O)c1cc2c(cc1C)n(C)c(=O)c(=O)n2C,"inconclusive: 11.6 µM [rising, partial curve]",
Cc1cnc2ncc3sccc3c2c1,inactive,
Cc1nnc(NC(=O)c2nc(SC(C)C)ncc2Cl)s1,inactive,
O=[N+]([O-])c1ccccc1/C=N/n1c(COc2ccccc2)n[nH]c1=S,"inconclusive: 18.4 µM [cytotoxic, single point]",
COC(=O)c1sccc1S(=O)(=O)Nc1ccc(S(N)(=O)=O)cc1,"inconclusive: 23.1 µM [rising, partial curve, poor fit]",
